Experimental data taken from PMC6969169.
These are yes or no findings as the source states them, for the method shown. In cells and extracts the contact can be indirect. Some results given as binding are weak or reduced against the parent protein; the word gives no strength.

Target: T1, Ncbp1 (mouse (endogenous in A2lox ESCs)) (UniProt Q3UYV9)
T1 sequence: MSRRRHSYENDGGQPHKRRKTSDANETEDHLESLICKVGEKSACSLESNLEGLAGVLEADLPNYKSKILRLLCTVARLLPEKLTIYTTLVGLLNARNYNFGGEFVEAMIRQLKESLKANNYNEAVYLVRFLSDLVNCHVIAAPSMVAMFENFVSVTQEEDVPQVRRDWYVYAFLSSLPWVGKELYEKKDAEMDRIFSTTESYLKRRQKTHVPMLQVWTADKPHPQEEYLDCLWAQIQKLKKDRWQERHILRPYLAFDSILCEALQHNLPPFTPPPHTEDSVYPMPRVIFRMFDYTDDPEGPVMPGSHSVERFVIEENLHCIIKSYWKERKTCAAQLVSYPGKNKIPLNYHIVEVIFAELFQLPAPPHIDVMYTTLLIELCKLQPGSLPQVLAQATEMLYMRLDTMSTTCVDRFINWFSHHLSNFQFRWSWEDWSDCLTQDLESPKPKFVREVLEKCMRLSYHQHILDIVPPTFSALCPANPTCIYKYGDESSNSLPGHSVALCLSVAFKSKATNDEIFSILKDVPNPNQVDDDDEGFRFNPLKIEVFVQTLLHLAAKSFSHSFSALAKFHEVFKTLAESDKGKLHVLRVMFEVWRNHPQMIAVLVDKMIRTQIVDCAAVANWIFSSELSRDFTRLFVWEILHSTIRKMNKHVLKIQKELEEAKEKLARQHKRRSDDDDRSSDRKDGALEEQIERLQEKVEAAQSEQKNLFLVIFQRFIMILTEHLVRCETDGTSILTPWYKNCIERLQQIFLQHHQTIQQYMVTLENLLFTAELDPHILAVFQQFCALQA
Experiment: co-IP; clarified lysate of A2lox mouse ESCs (10 mM Tris-HCl pH 7.5, 150 mM NaCl, 0.5% NP-40) with Dynabeads protein G preloaded with protein-specific antibodies or non-immune rabbit IgG, 4 °C overnight; in some experiments lysates with 25 units/ml benzonase; immunoblotting

B1: Srrt (protein, UniProt Q99MR6 1-875)
chain: MGDSDDEYDRRRRDKFRRERSDYDRSRERDERRRGDDWNDREWDRGRERRSRGEYRDYDRNRRERFSPPRHELSPPQKRMRRDWDEHSSDPYHSGYDMPYAGGGGGPTYGPPQPWGHPDVHIMQHHVLPIQARLGSIAEIDLGVPPPIMKSFKEFLLSLDDSVDETEAVKRYNDYKLDFRRQQMQDFFLAHKDEEWFRSKYHPDEVGKRRQEARGALQNRLKVFLSLMESGWFDNLLLDIDKADAIVKMLDAAVIKMEGGTENDLRILEQEEEEEQAGKTGEASKKEEARAGPALGEGERKANDKDEKKEDGKQAENDSSNDDKTKKSEGDGDKEEKKEEAEKEAKKSKKRNRKQSGDDSFDEGSVSESESESEGGQAEEEKEEAEEALKEKEKPKEEEKEKPKDAAGLECKPRPLHKTCSLFMRNIAPNISRAEIISLCKRYPGFMRVALSEPQPERRFFRRGWVTFDRSVNIKEICWNLQNIRLRECELSPGVNRDLTRRVRNINGITQHKQIVRNDIKLAAKLIHTLDDRTQLWASEPGTPPVPTSLPSQNPILKNITDYLIEEVSAEEEELLGSSGGPPPEEPPKEGNPAEINVERDEKLIKVLDKLLLYLRIVHSLDYYNTCEYPNEDEMPNRCGIIHVRGPMPPNRISHGEVLEWQKTFEEKLTPLLSVRESLSEEEAQKMGRKDPEQEVEKFVTSNTQELGKDKWLCPLSGKKFKGPEFVRKHIFNKHAEKIEEVKKEVAFFNNFLTDAKRPALPEIKPAQPPGPAQILPPGLTPGLPYPHQTPQGLMPYGQPRPPILGYGAGAVRPAVPTGGPPYPHAPYGAGRGNYDAFRGQGGYPGKPRNRMVRGDPRAIVEYRDLDAPDDVDFF
binding: binds
